This is one part of the list.
Legend:
Assay in all cases: log2 fold change, soluble protein after heating vs DMSO (PISA); higher = thermal stabilisation; K562 lysate, 10 uM; active = over 0.2 and 3.5 SD of the protein, either way, in both replicates (recomputed)
nilotinib = compound: Cc1cn(-c2cc(NC(=O)c3ccc(C)c(Nc4nccc(-c5cccnc5)n4)c3)cc(C(F)(F)F)c2)cn1 [nilotinib]
Procedure, shortened: (§1)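 Quantification was by TMTpro 16plex LC-MS/MS with equalised channel sums, applied to the supernatant after 21,000xg for 90 min. Samples were crude K562 extract at 1 mg/mL protein in PBS pH 7.4 with 1 mM MgCl2, treated with 10 μM compound for 30 min, heated for 3 min across 48°C-58°C, pooled and brought to 0.5% NP-40 at 4°C. Values are log-two fold changes in thermal stability relative to solvent controls, from duplicates.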

By UniProt entry, the sequences of proteins in these tests, tags left out. Where a name states a change or a piece, a line headed by the entry shows the natural chain unless it says otherwise.
UniProt Q9GZM8: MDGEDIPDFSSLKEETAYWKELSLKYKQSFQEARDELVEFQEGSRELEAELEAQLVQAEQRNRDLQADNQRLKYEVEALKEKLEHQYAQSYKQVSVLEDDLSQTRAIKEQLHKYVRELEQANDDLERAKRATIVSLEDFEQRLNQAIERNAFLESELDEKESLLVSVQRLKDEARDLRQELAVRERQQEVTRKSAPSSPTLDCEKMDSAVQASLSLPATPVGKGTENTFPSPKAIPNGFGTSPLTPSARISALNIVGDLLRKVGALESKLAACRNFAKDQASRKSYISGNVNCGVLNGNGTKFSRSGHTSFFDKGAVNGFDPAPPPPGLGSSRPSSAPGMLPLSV
UniProt Q92692, whole entry, looked up: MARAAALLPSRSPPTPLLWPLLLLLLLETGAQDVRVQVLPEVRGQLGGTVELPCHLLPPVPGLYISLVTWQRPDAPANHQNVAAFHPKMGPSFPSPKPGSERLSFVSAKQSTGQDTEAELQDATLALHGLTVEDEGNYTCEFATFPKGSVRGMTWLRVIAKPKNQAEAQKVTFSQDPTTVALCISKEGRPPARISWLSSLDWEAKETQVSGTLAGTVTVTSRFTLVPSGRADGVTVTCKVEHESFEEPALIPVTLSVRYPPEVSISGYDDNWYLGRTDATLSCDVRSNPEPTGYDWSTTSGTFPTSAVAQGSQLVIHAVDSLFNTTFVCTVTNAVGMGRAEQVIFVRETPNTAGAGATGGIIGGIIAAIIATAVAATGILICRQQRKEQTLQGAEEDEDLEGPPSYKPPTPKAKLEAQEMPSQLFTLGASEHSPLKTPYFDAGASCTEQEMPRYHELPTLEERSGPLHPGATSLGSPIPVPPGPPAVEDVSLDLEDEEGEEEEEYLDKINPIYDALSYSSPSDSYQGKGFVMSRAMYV
UniProt O95299, whole entry, looked up: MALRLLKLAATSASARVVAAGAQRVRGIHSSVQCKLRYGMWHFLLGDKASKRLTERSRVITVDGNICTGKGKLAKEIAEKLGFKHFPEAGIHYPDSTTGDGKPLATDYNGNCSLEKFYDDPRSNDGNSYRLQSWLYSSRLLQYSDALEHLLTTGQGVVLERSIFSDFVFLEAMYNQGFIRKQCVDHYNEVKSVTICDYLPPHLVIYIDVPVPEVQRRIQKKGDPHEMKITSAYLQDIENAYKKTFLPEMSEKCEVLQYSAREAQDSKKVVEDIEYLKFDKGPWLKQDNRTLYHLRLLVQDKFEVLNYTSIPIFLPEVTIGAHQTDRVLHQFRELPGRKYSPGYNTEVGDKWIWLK
UniProt O00217, whole entry, looked up: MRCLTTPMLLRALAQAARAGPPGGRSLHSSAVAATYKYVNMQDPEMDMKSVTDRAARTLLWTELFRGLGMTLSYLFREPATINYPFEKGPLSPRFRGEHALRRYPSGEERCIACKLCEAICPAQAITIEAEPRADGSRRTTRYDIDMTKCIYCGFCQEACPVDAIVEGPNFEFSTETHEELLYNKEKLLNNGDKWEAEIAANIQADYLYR
UniProt O43678, whole entry, looked up: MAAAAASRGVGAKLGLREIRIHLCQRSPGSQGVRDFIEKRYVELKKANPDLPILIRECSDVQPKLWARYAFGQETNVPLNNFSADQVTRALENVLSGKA
UniProt Q12857, whole entry, looked up: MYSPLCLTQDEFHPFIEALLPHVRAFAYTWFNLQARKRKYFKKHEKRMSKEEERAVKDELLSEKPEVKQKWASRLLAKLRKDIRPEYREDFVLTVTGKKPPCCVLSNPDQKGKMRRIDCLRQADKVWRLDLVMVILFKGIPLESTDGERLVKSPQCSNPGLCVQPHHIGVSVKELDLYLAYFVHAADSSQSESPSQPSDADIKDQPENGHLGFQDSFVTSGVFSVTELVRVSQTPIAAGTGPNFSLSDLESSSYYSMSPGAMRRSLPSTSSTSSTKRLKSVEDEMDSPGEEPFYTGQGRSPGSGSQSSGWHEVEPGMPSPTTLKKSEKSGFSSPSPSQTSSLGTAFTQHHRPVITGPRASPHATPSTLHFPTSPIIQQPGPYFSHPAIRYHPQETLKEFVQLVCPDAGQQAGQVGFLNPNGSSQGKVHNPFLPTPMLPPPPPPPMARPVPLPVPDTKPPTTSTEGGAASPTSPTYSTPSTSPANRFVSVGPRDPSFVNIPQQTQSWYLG
UniProt Q13952: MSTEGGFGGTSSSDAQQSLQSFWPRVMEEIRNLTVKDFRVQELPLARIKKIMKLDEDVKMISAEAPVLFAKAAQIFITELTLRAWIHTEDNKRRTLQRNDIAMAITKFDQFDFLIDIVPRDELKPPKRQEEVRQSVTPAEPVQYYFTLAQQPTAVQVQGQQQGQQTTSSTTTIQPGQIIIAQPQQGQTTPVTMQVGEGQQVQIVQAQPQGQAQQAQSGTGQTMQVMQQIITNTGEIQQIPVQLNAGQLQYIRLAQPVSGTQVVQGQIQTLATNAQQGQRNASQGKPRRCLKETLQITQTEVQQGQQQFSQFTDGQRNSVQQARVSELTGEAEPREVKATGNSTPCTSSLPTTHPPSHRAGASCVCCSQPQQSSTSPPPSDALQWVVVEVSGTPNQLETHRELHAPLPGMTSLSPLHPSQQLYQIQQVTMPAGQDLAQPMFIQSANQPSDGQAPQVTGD
UniProt Q9Y375: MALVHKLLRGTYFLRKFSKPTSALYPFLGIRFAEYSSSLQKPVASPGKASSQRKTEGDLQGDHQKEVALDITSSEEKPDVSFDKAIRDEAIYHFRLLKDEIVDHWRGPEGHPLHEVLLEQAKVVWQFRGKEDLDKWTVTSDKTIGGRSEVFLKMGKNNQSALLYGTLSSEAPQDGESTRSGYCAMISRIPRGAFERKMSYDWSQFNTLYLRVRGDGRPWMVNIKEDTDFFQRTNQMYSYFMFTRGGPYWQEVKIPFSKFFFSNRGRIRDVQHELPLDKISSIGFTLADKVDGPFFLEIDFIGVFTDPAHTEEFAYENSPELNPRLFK
UniProt Q9H9Q4: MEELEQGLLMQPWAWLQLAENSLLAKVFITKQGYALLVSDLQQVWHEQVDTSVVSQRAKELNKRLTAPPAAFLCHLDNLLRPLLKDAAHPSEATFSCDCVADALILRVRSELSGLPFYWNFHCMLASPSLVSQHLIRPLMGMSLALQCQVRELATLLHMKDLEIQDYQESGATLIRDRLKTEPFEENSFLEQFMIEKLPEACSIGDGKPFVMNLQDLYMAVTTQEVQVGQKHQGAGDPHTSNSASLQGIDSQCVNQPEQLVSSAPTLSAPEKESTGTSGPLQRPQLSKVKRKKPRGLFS
UniProt Q8IXH7, whole entry, looked up: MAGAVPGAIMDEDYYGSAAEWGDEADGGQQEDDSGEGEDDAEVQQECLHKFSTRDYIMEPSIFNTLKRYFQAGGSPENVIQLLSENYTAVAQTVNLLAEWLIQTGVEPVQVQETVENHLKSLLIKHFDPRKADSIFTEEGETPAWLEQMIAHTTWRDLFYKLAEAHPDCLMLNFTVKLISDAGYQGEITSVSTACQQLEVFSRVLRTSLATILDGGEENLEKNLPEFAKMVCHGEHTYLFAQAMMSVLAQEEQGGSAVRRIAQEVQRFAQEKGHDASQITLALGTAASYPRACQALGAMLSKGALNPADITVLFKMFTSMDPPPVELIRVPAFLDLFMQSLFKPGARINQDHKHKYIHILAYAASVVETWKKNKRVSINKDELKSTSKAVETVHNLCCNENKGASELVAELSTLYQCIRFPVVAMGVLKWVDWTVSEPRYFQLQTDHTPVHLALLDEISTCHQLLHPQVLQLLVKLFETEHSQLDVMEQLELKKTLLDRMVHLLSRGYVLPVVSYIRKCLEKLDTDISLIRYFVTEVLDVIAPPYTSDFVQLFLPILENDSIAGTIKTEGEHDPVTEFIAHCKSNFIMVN
UniProt Q8TDX7: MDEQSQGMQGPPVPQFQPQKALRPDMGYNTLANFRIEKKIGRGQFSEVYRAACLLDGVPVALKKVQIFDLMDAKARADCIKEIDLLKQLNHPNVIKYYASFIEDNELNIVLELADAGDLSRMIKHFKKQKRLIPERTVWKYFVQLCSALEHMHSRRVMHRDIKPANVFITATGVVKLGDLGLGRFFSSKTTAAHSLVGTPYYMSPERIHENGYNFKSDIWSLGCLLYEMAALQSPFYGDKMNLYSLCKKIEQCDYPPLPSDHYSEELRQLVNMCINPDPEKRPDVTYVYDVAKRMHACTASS
UniProt Q9NX24: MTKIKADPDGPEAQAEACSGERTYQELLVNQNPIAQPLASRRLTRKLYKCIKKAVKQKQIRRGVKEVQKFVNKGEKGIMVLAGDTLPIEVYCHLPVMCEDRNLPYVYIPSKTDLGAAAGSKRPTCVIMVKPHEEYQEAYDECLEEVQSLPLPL
UniProt Q9NX02: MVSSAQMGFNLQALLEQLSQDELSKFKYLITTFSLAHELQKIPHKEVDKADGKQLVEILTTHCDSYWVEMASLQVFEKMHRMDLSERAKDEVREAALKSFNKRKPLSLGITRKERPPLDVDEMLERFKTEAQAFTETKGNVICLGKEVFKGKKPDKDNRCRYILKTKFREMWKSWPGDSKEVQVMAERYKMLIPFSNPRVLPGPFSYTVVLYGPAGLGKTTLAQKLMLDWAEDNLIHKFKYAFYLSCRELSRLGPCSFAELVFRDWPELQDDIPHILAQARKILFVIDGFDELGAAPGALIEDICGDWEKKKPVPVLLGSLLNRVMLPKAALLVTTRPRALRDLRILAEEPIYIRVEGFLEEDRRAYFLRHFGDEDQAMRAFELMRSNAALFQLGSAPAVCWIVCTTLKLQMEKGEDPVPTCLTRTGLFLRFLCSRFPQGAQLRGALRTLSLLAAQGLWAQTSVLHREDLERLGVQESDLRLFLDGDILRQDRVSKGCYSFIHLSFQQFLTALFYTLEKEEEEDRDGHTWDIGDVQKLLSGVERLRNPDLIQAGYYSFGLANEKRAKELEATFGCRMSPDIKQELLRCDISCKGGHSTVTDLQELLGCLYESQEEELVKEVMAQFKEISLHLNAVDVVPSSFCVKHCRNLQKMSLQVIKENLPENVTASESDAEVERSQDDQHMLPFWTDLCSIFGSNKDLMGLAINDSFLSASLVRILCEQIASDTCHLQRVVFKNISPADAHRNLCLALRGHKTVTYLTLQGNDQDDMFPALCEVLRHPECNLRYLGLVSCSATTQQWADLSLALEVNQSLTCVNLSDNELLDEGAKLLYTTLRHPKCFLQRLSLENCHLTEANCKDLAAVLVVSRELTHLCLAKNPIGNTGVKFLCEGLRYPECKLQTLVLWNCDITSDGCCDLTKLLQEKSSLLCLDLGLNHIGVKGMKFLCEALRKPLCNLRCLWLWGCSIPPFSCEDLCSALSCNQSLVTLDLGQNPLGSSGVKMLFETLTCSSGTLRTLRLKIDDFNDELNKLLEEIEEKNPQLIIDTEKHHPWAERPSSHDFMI
UniProt P52849: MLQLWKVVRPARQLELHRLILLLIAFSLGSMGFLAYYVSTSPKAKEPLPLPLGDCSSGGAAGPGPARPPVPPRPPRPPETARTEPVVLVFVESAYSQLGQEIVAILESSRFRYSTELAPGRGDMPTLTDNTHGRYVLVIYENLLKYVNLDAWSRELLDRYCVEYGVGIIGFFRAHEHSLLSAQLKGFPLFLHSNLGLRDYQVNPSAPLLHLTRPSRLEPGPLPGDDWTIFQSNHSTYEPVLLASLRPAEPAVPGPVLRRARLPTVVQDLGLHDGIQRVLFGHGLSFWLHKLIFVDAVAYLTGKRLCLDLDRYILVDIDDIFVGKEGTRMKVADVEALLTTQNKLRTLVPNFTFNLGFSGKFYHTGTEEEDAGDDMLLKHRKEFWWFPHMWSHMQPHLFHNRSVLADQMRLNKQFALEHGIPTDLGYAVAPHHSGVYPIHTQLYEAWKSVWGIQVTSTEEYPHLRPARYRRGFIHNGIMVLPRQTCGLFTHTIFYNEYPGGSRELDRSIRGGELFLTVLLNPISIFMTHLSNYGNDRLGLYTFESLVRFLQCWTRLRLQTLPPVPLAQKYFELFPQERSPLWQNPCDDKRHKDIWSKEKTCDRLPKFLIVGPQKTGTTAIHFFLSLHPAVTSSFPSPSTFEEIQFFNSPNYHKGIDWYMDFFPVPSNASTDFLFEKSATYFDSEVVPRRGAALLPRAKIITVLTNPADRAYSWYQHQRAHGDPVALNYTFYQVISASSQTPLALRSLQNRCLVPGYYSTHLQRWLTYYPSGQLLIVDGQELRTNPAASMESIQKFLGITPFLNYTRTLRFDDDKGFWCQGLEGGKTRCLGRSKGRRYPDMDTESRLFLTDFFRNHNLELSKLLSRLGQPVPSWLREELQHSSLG
UniProt Q9BYG3: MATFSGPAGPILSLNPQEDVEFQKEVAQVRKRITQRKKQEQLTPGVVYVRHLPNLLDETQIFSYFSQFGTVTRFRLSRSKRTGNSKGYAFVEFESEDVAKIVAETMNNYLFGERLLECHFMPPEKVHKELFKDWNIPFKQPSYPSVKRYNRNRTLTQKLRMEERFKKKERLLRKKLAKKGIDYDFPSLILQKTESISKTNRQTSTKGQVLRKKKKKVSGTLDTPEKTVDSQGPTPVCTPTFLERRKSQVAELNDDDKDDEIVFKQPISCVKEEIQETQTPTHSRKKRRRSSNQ
UniProt O75380, whole entry, looked up: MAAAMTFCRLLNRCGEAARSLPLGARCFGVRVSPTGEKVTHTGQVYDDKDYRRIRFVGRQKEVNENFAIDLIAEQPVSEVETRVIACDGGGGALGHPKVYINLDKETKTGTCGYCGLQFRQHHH

[1] = compound: Cc1nc(Nc2n[nH]c3c2CN(C(=O)N[C@H](CN(C)C)c2ccccc2)C3(C)C)c2sccc2n1
Procedure, shortened: as §1

dasatinib = compound: Cc1nc(Nc2ncc(C(=O)Nc3c(C)cccc3Cl)s2)cc(N2CCN(CCO)CC2)n1 [dasatinib]
Procedure, shortened: as §1

[2] = compound: Cc1ncc(-c2ccnc(Nc3ccc(S(C)(=O)=O)cc3)n2)n1C(C)C
Procedure, shortened: as §1

[3] = compound: Cn1cc(-c2ccc3c(c2)CCN3C(=O)Cc2cccc(C(F)(F)F)c2)c2c(N)ncnc21
Procedure, shortened: as §1

quisinostat = compound: Cn1cc(CNCC2CCN(c3ncc(C(=O)NO)cn3)CC2)c2ccccc21 [quisinostat]
Procedure, shortened: as §1

tipifarnib = compound: Cn1cncc1[C@@](N)(c1ccc(Cl)cc1)c1ccc2c(c1)c(-c1cccc(Cl)c1)cc(=O)n2C [tipifarnib]
Procedure, shortened: as §1

[4] = compound: NC(=O)Nc1cc(-c2cccc(F)c2)sc1C(=O)N[C@H]1CCCNC1
Procedure, shortened: as §1

[5] = compound: NC(=O)c1cnc(N[C@@H]2CCCC[C@@H]2N)nc1Nc1cccc(-n2nccn2)c1
Procedure, shortened: as §1

[6] = compound: NC1(c2ccc(-c3nc4ccn5c(=O)[nH]nc5c4cc3-c3ccccc3)cc2)CCC1
Procedure, shortened: as §1

Measured: log2 fold change

NEBL (UniProt O76041)
inactive: nilotinib -0.024 | [1] 0.019 | dasatinib 0.089 | [2] 0.032 | [3] -0.007 | quisinostat -0.045 | tipifarnib 0.008 | [4] -0.065 | [5] -0.018 | [6] -0.03

NFATC1 (UniProt O95644)
inactive: nilotinib -0.048 | [1] -0.055 | dasatinib 0.014 | [2] 0.014 | [3] 0.037 | quisinostat -0.097 | tipifarnib 0.006 | [4] 0.042 | [5] -0.002 | [6] -0.058

NDEL1 isoform 2 (UniProt Q9GZM8)
inactive: nilotinib 0.038 | [1] -0.042 | dasatinib 0.032 | [2] -0.021 | [3] 0.071 | quisinostat -0.041 | tipifarnib 0.038 | [4] 0.036 | [5] -0.034 | [6] 0.035

NECTIN2 isoform 2 (UniProt Q92692)
inactive: nilotinib -0.09 | [1] -0.048 | dasatinib 0.091 | [2] -0.03 | [3] 0.005 | quisinostat -0.095 | tipifarnib -0.139 | [4] 0.012 | [5] 0.014 | [6] -0.115

NHLRC2 (UniProt Q8NBF2)
inactive: nilotinib -0.002 | [1] 0.005 | dasatinib -0.018 | [2] 0 | [3] -0.008 | quisinostat -0.024 | tipifarnib -0.011 | [4] 0.013 | [5] 0.006 | [6] -0.039

NDRG3 (UniProt Q9UGV2)
inactive: nilotinib 0.027 | [1] 0.038 | dasatinib -0.027 | [2] 0.03 | [3] -0.026 | quisinostat 0.004 | tipifarnib -0.026 | [4] -0.009 | [5] -0.005 | [6] -0.02

NDRG2 (UniProt Q9UN36)
inactive: nilotinib 0.035 | [1] -0.015 | dasatinib 0.014 | [2] 0.019 | [3] -0.014 | quisinostat -0.03 | tipifarnib 0.003 | [4] -0.02 | [5] 0 | [6] -0.003

NDUFA10 (UniProt O95299)
inactive: nilotinib 0.002 | [1] 0.054 | dasatinib -0.086 | [2] 0.02 | [3] 0.002 | quisinostat 0.039 | tipifarnib 0 | [4] 0.023 | [5] 0.183 | [6] 0.105

NDUFS8 (UniProt O00217)
inactive: nilotinib 0 | [1] 0.027 | dasatinib 0.022 | [2] -0.005 | [3] 0.068 | quisinostat 0.018 | tipifarnib -0.003 | [4] 0.023 | [5] 0.026 | [6] 0.072

NDUFA2 (UniProt O43678)
inactive: nilotinib 0.073 | [1] 0.005 | dasatinib -0.012 | [2] -0.013 | [3] -0.04 | quisinostat 0.092 | tipifarnib 0.007 | [4] -0.048 | [5] 0.019 | [6] 0.031

NECAP1 (UniProt Q8NC96)
inactive: nilotinib -0.013 | [1] -0.041 | dasatinib 0.006 | [2] -0.012 | [3] 0.041 | quisinostat -0.18 | tipifarnib 0.001 | [4] 0.025 | [5] 0.011 | [6] -0.003

NFIA isoform 4 (UniProt Q12857)
inactive: nilotinib -0.033 | [1] 0.059 | dasatinib 0.004 | [2] 0.016 | [3] 0.118 | quisinostat 0.024 | tipifarnib -0.066 | [4] 0.037 | [5] 0.078 | [6] 0.009

NFYC (UniProt Q13952)
inactive: nilotinib -0.021 | [1] 0.016 | dasatinib 0.024 | [2] -0.017 | [3] 0.006 | quisinostat -0.001 | tipifarnib -0.02 | [4] 0.019 | [5] 0.037 | [6] 0.01

NDUFAF1 (UniProt Q9Y375)
inactive: nilotinib 0.121 | [1] -0.037 | dasatinib 0.006 | [2] 0.003 | [3] -0.037 | quisinostat -0.134 | tipifarnib -0.014 | [4] 0.036 | [5] 0.031 | [6] 0.076

NFATC2 (UniProt Q13469)
inactive: nilotinib -0.001 | [1] -0.052 | dasatinib -0.033 | [2] 0.061 | [3] -0.001 | quisinostat -0.133 | tipifarnib -0.021 | [4] 0.024 | [5] -0.025 | [6] -0.023

NDUFAF4 (UniProt Q9P032)
inactive: nilotinib 0 | [1] -0.035 | dasatinib -0.01 | [2] -0.021 | [3] 0.026 | quisinostat -0.03 | tipifarnib -0.003 | [4] 0.032 | [5] 0.005 | [6] -0.011

NHEJ1 (UniProt Q9H9Q4)
inactive: nilotinib 0.05 | [1] 0.048 | dasatinib -0.007 | [2] 0.108 | [3] -0.076 | quisinostat -0.045 | tipifarnib -0.004 | [4] 0.049 | [5] -0.025 | [6] -0.009

NDUFS2 (UniProt O75306)
inactive: nilotinib 0.033 | [1] -0.039 | dasatinib -0.01 | [2] -0.003 | [3] 0.005 | quisinostat 0.018 | tipifarnib -0.031 | [4] 0 | [5] -0.009 | [6] 0.002

NELFCD (UniProt Q8IXH7)
inactive: nilotinib -0.024 | [1] 0.015 | dasatinib -0.019 | [2] -0.025 | [3] 0.034 | quisinostat -0.083 | tipifarnib -0.032 | [4] 0.046 | [5] 0.013 | [6] -0.031

NDUFAF3 (UniProt Q9BU61)
inactive: nilotinib -0.03 | [1] 0.009 | dasatinib -0.04 | [2] 0.053 | [3] 0.005 | quisinostat -0.038 | tipifarnib 0.01 | [4] -0.003 | [5] 0.007 | [6] 0.044

NIPSNAP3A (UniProt Q9UFN0)
inactive: nilotinib 0.001 | [1] 0.016 | dasatinib 0.028 | [2] 0.008 | [3] -0.054 | quisinostat -0.053 | tipifarnib 0.015 | [4] 0.007 | [5] -0.052 | [6] -0.025

NF1 (UniProt P21359)
inactive: nilotinib -0.021 | [1] 0.053 | dasatinib 0.007 | [2] -0.039 | [3] 0.024 | quisinostat -0.059 | tipifarnib 0.018 | [4] 0.041 | [5] 0.016 | [6] -0.016

NEK7 (UniProt Q8TDX7)
inactive: nilotinib 0.003 | [1] 0.016 | dasatinib -0.03 | [2] 0.045 | [3] 0.168 | quisinostat -0.018 | tipifarnib -0.006 | [4] 0.033 | [5] 0.018 | [6] 0.01

NHP2 (UniProt Q9NX24)
inactive: nilotinib -0.077 | [1] 0.06 | dasatinib 0.03 | [2] 0.029 | [3] -0.007 | quisinostat 0.035 | tipifarnib -0.026 | [4] -0.063 | [5] 0.043 | [6] 0.016

NLRP2 (UniProt Q9NX02)
inactive: nilotinib -0.002 | [1] 0.013 | dasatinib -0.019 | [2] 0.007 | [3] 0.032 | quisinostat -0.031 | tipifarnib -0.008 | [4] 0.013 | [5] 0.003 | [6] 0.026

Copied from the entries so far (two entries):
NHP2 (UniProt Q9NX24)
inactive: nilotinib -0.077 | [1] 0.06 | dasatinib 0.03 | [2] 0.029 | [3] -0.007 | quisinostat 0.035 | tipifarnib -0.026 | [4] -0.063 | [5] 0.043 | [6] 0.016

NLRP2 (UniProt Q9NX02)
inactive: nilotinib -0.002 | [1] 0.013 | dasatinib -0.019 | [2] 0.007 | [3] 0.032 | quisinostat -0.031 | tipifarnib -0.008 | [4] 0.013 | [5] 0.003 | [6] 0.026

The listing continues.

NDUFAB1 (UniProt O14561)
inactive: nilotinib 0.051 | [1] 0.006 | dasatinib -0.036 | [2] 0.172 | [3] -0.16 | quisinostat 0.186 | tipifarnib 0.027 | [4] -0.04 | [5] -0.065 | [6] 0.052

NDST2 (UniProt P52849)
inactive: nilotinib -0.006 | [1] -0.058 | dasatinib 0.059 | [2] -0.087 | [3] -0.106 | quisinostat 0.117 | tipifarnib -0.083 | [4] -0.065 | [5] 0.01 | [6] -0.058

NIFK (UniProt Q9BYG3)
inactive: nilotinib 0.033 | [1] -0.003 | dasatinib -0.012 | [2] 0.035 | [3] -0.01 | quisinostat -0.042 | tipifarnib 0.002 | [4] 0.037 | [5] -0.016 | [6] -0.038

NDUFS6 (UniProt O75380)
inactive: nilotinib 0.049 | [1] 0.023 | dasatinib -0.005 | [2] -0.022 | [3] -0.008 | quisinostat 0.023 | tipifarnib 0.001 | [4] -0.011 | [5] 0.007 | [6] 0.035

NKRF isoform 2 (UniProt O15226)
inactive: nilotinib -0.037 | [1] 0.06 | dasatinib -0.015 | [2] -0.013 | [3] 0.007 | quisinostat -0.012 | tipifarnib 0.01 | [4] 0.043 | [5] -0.05 | [6] -0.091
